These are yes or no findings as the source states them, for the method shown. Binding seen in cells or lysates may run through a third protein. Here binding means that the protein was enriched with, or labelled near, the bait; the list need not be complete.

Protein sequences, listed by entry. Tags and fused reporters are not part of them. Residues count along the entry.
UniProt P08151: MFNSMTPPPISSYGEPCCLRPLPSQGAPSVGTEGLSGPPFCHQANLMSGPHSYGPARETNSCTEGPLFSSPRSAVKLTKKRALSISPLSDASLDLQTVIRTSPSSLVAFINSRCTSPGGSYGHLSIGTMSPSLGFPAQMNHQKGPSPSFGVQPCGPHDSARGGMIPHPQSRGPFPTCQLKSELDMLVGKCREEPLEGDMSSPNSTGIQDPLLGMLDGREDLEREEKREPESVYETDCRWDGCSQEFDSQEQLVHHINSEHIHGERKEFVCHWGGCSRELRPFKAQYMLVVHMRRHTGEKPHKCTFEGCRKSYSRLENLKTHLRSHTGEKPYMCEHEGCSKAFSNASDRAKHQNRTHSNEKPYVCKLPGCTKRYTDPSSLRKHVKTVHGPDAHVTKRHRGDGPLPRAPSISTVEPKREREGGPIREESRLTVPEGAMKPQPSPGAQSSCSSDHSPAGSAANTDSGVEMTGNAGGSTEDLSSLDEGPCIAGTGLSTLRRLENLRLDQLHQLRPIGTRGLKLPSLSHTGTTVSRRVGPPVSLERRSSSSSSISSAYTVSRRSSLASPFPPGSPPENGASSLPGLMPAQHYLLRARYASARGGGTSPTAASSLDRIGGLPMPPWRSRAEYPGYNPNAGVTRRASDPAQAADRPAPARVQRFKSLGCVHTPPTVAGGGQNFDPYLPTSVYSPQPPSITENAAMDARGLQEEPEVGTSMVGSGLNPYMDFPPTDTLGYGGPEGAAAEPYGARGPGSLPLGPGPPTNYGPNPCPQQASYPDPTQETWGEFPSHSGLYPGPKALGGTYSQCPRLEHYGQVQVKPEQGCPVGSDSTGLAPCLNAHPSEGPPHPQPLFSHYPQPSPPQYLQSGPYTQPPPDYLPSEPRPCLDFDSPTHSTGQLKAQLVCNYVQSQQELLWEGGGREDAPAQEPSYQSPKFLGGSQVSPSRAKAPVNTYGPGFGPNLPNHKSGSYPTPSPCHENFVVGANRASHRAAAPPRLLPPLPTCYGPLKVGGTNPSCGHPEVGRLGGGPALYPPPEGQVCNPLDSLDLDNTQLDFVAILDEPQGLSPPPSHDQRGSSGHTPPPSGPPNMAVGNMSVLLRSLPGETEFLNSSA
UniProt Q05639: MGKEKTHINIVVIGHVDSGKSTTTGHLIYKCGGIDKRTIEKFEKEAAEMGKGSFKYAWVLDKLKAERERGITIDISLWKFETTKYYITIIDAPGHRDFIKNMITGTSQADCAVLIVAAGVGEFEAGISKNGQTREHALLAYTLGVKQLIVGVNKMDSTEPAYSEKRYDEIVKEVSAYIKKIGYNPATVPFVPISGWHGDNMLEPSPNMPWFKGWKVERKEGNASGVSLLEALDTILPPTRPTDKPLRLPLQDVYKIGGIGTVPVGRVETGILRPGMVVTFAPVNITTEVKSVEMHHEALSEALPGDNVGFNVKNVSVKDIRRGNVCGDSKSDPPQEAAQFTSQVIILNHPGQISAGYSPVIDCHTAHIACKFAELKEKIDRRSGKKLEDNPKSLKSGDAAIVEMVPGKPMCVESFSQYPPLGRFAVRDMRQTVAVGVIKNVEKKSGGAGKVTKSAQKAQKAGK
UniProt Q14764: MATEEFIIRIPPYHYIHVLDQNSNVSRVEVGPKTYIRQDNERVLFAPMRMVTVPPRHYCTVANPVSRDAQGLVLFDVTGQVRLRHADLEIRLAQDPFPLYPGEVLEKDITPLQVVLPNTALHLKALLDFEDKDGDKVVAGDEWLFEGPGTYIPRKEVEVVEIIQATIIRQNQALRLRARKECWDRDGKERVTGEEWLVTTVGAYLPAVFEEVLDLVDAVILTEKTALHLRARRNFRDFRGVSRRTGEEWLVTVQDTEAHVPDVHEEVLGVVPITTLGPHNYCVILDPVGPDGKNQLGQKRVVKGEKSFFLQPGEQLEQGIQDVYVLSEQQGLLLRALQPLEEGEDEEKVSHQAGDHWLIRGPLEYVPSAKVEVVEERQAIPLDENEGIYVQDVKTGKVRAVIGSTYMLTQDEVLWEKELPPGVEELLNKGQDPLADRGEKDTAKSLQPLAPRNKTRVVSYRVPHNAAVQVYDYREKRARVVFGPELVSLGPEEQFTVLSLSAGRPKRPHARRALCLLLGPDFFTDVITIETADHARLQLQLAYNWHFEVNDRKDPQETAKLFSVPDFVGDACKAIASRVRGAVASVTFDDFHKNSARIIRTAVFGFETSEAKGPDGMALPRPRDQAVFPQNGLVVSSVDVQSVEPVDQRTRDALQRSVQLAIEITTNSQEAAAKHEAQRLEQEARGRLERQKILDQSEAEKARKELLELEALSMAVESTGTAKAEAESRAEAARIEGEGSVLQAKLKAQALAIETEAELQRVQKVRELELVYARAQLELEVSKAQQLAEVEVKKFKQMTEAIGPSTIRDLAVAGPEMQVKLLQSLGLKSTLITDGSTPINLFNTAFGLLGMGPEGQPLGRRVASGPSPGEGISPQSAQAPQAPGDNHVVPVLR
UniProt P10809, residues 27-573: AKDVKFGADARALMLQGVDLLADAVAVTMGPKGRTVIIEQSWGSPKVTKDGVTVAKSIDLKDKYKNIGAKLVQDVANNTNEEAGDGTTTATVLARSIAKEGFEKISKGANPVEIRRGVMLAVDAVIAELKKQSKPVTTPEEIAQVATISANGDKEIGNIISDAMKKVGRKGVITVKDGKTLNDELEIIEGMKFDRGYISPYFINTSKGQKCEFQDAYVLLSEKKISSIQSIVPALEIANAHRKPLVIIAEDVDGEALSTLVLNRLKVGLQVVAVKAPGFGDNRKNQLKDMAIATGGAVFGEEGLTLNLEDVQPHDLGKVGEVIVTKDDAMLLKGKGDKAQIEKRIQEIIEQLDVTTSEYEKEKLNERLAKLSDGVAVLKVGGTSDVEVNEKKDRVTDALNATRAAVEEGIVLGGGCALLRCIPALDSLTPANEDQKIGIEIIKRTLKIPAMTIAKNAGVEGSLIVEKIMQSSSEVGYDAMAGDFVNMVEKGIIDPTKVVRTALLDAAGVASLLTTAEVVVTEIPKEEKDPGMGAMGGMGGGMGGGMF

The text below walks through data of publication PMC8257592.

This assay concerns the target GLI1 (endogenous) (human (endogenous in SW1353 and HCS2/8)) (UniProt P08151). The assay is described as follows: affinity purification with mass spectrometry; IP with GLI1 antibody in SW1353 cell lysates, silver staining, LC-MS/MS; normal IgG as negative control.
As for eEF1A2 (from UniProt Q05639 1-463), the binding entry is reported as “binds”.

Regarding “major vault protein (endogenous) (from UniProt Q14764 1-893)”, the binding entry is on record as “binds”.

Take HSP60 (from UniProt P10809 27-573): the binding entry is given as “binds”.
